Values from PubChem BioAssay AID743454 (Peter MacCallum Cancer Centre, 2014)
Assay: 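Genes whose loss kills vorinostat-resistant colon cancer cells under vorinostat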 (primary screen). Cells: human HCT116-VR colon cancer cells, selected for vorinostat resistance. Reagent: siRNA pool against human genes, 40 nM siRNA pool. Timing: vorinostat for 24 h, read-out about 72 h after transfection. Treatment: vorinostat at 2.5 µM final. Detection: 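Cell viability by CellTiter-Fluor and caspase 3/7 activity by luminescence, each scaled to mock wells per plate, duplicates averaged, then robust z-scored over all plates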. Reading the numbers: viability robust z-score: higher = more viable cells than screen typical; caspase robust z-score: higher = more caspase 3/7 activity than screen typical. Rule for the call: 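a knock-down is a hit when classed RV1 or RV2 for lowered viability, or CA1 or CA2 for caspase activation; those lethal without drug were dropped; hits were retested singly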.
The whole screen tested about 18,000 reagents; this is a random part of them. 450 of them (2.5%) were called active. 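Single biological run; no consistent viability z cut-off exists, so the class columns, not z-scores, define the calls.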 Entries without a mark were called inactive.

Target gene,viability hit class,caspase hit class,viability robust z-score,caspase robust z-score
CACNA2D3,no change,no change,-0.42,1.25
DENND10P1 (DENND10 pseudogene 1),no change,no change,-0.44,-0.12
SPAG7 (sperm associated antigen 7),no change,no change,-0.15,-1.05
SMARCE1 (SWI/SNF related BAF chromatin remodeling complex subunit E1),no change,no change,-1.71,1.83
MT1H (metallothionein 1H),no change,no change,0.95,-0.86
BEND7 (BEN domain containing 7),no change,no change,-0.2,-0.48
PLCB3 (phospholipase C beta 3),no change,no change,1.56,-0.66
PTGS2 (prostaglandin-endoperoxide synthase 2),no change,no change,-0.13,-0.4
AMIGO1 (adhesion molecule with Ig like domain 1),no change,no change,-0.22,2.88
SEMA4C (semaphorin 4C),no change,no change,0.24,-0.92
H2AJ (H2A.J histone),no change,no change,1.27,1.47
TVP23C (trans-golgi network vesicle protein 23 homolog C),no change (active),CA1 (caspase activation),-1.04,7.3
UGT1A7 (UDP glucuronosyltransferase family 1 member A7),no change,no change,0.13,-1.27
CDK14 (cyclin dependent kinase 14),no change (active),CA2 (caspase activation),-1.43,6.47
ABLIM3 (actin binding LIM protein family member 3),no change,no change,-1.38,-0.38
TTN (titin),no change,no change,0.54,0.41
ACRV1 (acrosomal vesicle protein 1),no change,no change,0.83,1.94
LIMA1 (LIM domain and actin binding 1),no change,no change,-0.74,-1.03
ADCYAP1R1 (ADCYAP receptor type I),no change,no change,-1.29,-0.47
TXN (thioredoxin),no change,no change,-0.44,0.42
CCT5 (chaperonin containing TCP1 subunit 5),no change,no change,-0.2,-0.74
"GPAM (glycerol-3-phosphate acyltransferase, mitochondrial)",no change,no change,1.72,0.07
RTL6 (retrotransposon Gag like 6),no change,no change,1.7,0.76
CIROZ,no change,no change,-0.61,1.34
ITPRID2 (ITPR interacting domain containing 2),no change,no change,0.52,-0.26
AZIN2 (antizyme inhibitor 2),no change,no change,0.24,-0.72
CES4A (carboxylesterase 4A),no change,no change,0.22,-0.09
H4C8 (H4 clustered histone 8),no change,no change,1.15,1.77
NECTIN3 (nectin cell adhesion molecule 3),no change,no change,0.06,-0.38
AHCTF1 (AT-hook containing transcription factor 1),no change,no change,-1.82,1.44
GABBR2 (gamma-aminobutyric acid type B receptor subunit 2),no change,no change,0,-0.11
ELAVL4 (ELAV like RNA binding protein 4),no change,no change,-0.33,0.74
LAMC2 (laminin subunit gamma 2),no change,no change,0.06,-0.24
SPEF2 (sperm flagellar and cilia associated 2),no change,no change,1.44,-0.38
AGR3,no change,no change,0.59,-0.2

The list goes on (3 carried over from the part before).
Target gene,viability hit class,caspase hit class,viability robust z-score,caspase robust z-score
LAMC2 (laminin subunit gamma 2),no change,no change,0.06,-0.24
SPEF2 (sperm flagellar and cilia associated 2),no change,no change,1.44,-0.38
AGR3,no change,no change,0.59,-0.2
KRTAP19-3 (keratin associated protein 19-3),no change,no change,-0.2,-0.52
BAG1 (BAG cochaperone 1),no change,no change,-0.99,4.62
CLDN20 (claudin 20),no change,no change,2.83,0.07
MEX3A (mex-3 RNA binding family member A),no change,no change,0.26,-0.66
IBTK (inhibitor of Bruton tyrosine kinase),no change,no change,-0.53,-0.94
ALDH9A1 (aldehyde dehydrogenase 9 family member A1),no change,no change,-0.65,-0.44
BACE1 (beta-secretase 1),no change,no change,-3.46,1.15
TEPSIN (TEPSIN adaptor related protein complex 4 accessory protein),no change,no change,0.94,1.77
HDAC8 (histone deacetylase 8),no change,no change,0.94,-0.49
FAM3A (FAM3 metabolism regulating signaling molecule A),no change,no change,0,3.25
DENND2B (DENN domain containing 2B),no change,no change,-0.12,4.25
SLC2A9,no change,no change,-0.53,-0.24
GPR26 (G protein-coupled receptor 26),no change,no change,-1.7,2
ZNF451 (zinc finger protein 451),no change,no change,-1.4,0.2
"FCGR1BP (Fc gamma receptor Ib, pseudogene)",no change,no change,-0.32,-0.5
FAM111A (FAM111 trypsin like peptidase A),no change,no change,-1.76,1.1
PRPF3 (pre-mRNA processing factor 3),no change,no change,-2.36,0.82
OPN5 (opsin 5),no change,no change,-1.31,-0.72
NCBP3 (nuclear cap binding subunit 3),no change,no change,-0.2,0.18
GUCA1B (guanylate cyclase activator 1B),no change,no change,0.65,0.61
CSF3 (colony stimulating factor 3),no change,no change,-1.25,-1.04
PCDH20 (protocadherin 20),no change,no change,0.1,-1.19
